# Reference: paper PMC11928650
# Sequences of proteins named here, by UniProt entry; tags and fusion partners are left off. A change or cut given only in a name is not applied to a line headed by its entry. Residues count along the entry.
# UniProt P19022, residues 160-906: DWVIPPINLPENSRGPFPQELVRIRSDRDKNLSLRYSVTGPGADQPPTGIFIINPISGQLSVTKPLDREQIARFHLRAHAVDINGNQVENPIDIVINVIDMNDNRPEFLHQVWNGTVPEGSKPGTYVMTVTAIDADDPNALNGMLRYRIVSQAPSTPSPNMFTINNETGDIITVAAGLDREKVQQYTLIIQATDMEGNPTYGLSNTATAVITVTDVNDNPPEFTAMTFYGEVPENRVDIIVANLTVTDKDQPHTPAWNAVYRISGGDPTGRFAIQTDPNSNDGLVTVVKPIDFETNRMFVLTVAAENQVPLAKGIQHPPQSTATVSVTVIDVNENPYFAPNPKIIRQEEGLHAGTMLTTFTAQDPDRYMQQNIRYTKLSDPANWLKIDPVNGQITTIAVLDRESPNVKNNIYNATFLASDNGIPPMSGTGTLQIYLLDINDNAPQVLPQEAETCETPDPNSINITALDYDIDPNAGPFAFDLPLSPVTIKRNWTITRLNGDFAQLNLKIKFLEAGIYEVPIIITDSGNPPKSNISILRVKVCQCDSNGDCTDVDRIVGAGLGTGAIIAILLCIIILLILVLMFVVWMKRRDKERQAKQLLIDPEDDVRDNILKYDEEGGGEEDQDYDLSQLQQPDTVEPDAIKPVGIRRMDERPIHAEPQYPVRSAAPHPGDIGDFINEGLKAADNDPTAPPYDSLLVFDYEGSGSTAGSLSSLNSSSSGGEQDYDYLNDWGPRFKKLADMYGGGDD
# UniProt Q13444: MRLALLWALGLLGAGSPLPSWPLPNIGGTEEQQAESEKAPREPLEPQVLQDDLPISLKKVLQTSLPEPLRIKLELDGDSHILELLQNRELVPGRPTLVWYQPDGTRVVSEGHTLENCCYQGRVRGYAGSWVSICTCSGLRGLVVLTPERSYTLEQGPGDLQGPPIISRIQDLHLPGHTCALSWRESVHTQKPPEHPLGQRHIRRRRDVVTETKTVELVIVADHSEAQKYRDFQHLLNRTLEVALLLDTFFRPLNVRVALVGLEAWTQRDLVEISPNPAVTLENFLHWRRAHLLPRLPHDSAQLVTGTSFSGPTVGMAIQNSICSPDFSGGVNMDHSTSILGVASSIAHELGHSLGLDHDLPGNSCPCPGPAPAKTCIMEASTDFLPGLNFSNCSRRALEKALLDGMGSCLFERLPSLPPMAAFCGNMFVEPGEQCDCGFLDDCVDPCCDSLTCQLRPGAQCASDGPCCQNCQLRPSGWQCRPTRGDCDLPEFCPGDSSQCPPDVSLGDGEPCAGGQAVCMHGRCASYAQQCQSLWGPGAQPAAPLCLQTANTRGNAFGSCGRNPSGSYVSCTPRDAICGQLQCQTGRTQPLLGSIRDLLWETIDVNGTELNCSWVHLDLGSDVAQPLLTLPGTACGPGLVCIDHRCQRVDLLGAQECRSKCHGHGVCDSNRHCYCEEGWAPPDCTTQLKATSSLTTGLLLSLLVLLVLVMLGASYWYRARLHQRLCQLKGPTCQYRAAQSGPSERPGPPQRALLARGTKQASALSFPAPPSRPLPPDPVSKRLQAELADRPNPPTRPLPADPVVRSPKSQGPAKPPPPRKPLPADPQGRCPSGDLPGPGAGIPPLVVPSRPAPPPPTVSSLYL
# UniProt Q13177: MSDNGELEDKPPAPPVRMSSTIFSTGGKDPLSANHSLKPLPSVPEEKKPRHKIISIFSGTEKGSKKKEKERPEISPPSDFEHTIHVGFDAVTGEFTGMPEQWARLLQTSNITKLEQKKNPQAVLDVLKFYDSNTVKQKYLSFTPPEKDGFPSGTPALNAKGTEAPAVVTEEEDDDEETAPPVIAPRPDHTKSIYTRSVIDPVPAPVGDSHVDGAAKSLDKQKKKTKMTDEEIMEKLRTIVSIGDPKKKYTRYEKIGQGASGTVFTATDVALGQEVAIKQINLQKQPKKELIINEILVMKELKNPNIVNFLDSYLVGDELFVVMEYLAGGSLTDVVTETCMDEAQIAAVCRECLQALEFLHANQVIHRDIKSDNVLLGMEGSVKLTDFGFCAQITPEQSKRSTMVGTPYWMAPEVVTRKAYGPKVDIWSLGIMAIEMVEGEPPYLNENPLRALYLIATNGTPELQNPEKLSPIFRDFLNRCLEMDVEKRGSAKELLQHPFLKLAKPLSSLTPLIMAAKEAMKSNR
# Results are given in words; binding and its absence hold for the method and conditions named. In cells and extracts the contact can be indirect. For part of these data: A result given as binding can be weak or reduced; the word gives no strength.
# What was measured:
# [1] = biological target: N-cadherin (NCAD), endogenous in the chondrocyte cell line T/C28a4 (human (endogenous in T/C28a4)) (UniProt P19022); test: co-IP; lysates of T/C28a4 chondrocyte cells transfected with full length ADAM15 or ADAM15 Δcyto (10 mM HEPES pH 7.0, 150 mM NaCl, 1% Triton X-100), ADAM15 or N-cadherin antibody with protein G agarose overnight at 4 °C, immunoblot; cells mechanically strained where Nck and PAK2 were detected
# [2] = biological target: full length ADAM15 transfected into the chondrocyte cell line T/C28a4 (UniProt Q13444); test: condition: only unstimulated cells (no mechanical strain); co-IP; as a4, but unstimulated (not mechanically strained) T/C28a4 cells with full length ADAM15; ADAM15 antibody, blots for Nck and PAK2
# [3] = biological target: full length ADAM15 transfected into the chondrocyte cell line T/C28a4 (UniProt Q13444); test: co-IP; lysates of T/C28a4 chondrocyte cells transfected with full length ADAM15 or ADAM15 Δcyto (10 mM HEPES pH 7.0, 150 mM NaCl, 1% Triton X-100), ADAM15 or N-cadherin antibody with protein G agarose overnight at 4 °C, immunoblot; cells mechanically strained where Nck and PAK2 were detected
binding [1],binding [2],binding [3],Substance
binds,,,full length ADAM15 transfected into the chondrocyte cell line T/C28a4 (from UniProt Q13444)
,no binding,binds,"p21-activated kinase 2 (PAK2), endogenous in the chondrocyte cell line T/C28a4 (from UniProt Q13177 1-524)"
